This is an account of results in article PMC2582960, “A Structural Model of the Staphylococcus aureus ClfA–Fibrinogen Interaction Opens New Avenues for the Design of Anti-Staphylococcal Therapeutics” (PLoS Pathogens, 2008).

Protein sequences, listed by entry. Tags and fused reporters are not part of them. Lines headed by an entry give the natural chain unless they say otherwise; changes in a name come on top.
UniProt P08514: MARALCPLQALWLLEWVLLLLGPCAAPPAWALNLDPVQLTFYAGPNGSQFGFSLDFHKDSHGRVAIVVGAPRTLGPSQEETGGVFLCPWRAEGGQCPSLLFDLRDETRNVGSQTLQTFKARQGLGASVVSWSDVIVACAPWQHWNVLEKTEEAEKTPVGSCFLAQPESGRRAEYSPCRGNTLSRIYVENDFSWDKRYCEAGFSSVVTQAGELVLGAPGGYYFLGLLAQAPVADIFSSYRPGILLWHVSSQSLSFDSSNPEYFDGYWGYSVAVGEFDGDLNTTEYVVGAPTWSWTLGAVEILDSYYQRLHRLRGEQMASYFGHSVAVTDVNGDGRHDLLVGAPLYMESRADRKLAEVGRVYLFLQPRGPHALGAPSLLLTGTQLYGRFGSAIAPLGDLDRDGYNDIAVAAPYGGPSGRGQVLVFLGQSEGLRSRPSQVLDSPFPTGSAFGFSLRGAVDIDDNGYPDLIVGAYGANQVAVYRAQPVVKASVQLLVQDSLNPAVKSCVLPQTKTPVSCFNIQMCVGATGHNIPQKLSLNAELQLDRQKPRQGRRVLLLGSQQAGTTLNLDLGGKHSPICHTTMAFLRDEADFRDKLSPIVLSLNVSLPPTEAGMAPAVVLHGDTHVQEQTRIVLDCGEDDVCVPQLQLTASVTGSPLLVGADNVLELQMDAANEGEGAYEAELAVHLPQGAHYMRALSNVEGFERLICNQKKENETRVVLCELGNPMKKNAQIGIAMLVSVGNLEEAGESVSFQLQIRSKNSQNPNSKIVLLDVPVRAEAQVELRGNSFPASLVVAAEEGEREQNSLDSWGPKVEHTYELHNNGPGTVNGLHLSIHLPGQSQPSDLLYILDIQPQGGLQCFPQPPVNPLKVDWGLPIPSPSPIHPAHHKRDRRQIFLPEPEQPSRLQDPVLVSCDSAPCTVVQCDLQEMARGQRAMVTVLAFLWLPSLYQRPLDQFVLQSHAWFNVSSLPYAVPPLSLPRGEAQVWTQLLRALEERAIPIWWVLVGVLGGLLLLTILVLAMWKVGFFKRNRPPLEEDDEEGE

The target in the assay is platelet integrin αIIbβ3 (UniProt P08514). The assay can be described thus: ELISA; inhibition: αIIbβ3 coated (0.25 µg/well); 10 nM full length Fg added with various concentrations of peptide, RT, 1 h, in TBST with 1% BSA, 2 mM MgCl2, 1 mM CaCl2 and MnCl2; bound Fg detected with anti human Fg antibody; both purified. (In general: An ELISA detects its analyte on a solid surface through an enzyme-linked reagent.)

Results are given in words; binding and its absence hold for the method and conditions named. Some results given as binding are weak or reduced against the parent protein; the word gives no strength.

For “Fg γ^1–17 peptide, wild type (Fg γ-chain 395–411) (from UniProt P02679-2 421-437)”, the binding entry was “binds”.
